Data as given in PubChem BioAssay AID1259308 (NCATS, 2017).
In all, the deposit lists about 59,000 reagents; shown is a random part of them. Of all reagents, about 1,510 (2.6%) are marked active. 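Calls use total luciferase alone and ignore viability, so some active siRNAs may act by altering cell number.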 Reagents against one gene are numbered here. Further read-outs or replicates are left out here.

- Aim: 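Genes whose loss raises luciferase production in HEK293 cells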 (primary screen)
- Cell system: human HEK293 embryonic kidney cells stably expressing firefly luciferase (HEK-CMV-Luc2-Hygro)
- Reagent: single siRNA against human genes, 0.8 pmol siRNA per well
- Time to read-out: 72 h
- Detection: 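Reporter luminescence and viable-cell signal on separate replicate plates, given as percent of non-targeting control and median/MAD z-scores, plus per-cell luciferase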
- Scale: total luciferase, z-score: higher = more reporter protein produced
- Hit rule: 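An siRNA counts as active if its total luciferase robust z-score exceeds 3; genes with two or more such siRNAs out of three were retested with fresh siRNAs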
- Calls: active = raised luciferase; inactive = no rise

total luciferase, z-score, by gene and reagent
ZNF608 (zinc finger protein 608): #1 -0.983 inactive; #2 -0.978 inactive; #3 -0.546 inactive
PSMB10 (proteasome 20S subunit beta 10): #1 0.201 inactive; #2 0.623 inactive; #3 0.0382 inactive
TPD52L3 (TPD52 like 3): #1 -0.142 inactive; #2 0.989 inactive; #3 0.0016 inactive
ZNF823 (zinc finger protein 823): #1 0.101 inactive; #2 -0.594 inactive; #3 -0.158 inactive
RPRD1B (regulation of nuclear pre-mRNA domain containing 1B): #1 -0.785 inactive; #2 -0.69 inactive; #3 -0.369 inactive
ADGRL1 (adhesion G protein-coupled receptor L1): #1 -0.565 inactive; #2 -0.307 inactive; #3 1.07 inactive
GID4 (GID complex subunit 4 homolog): #1 -1.27 inactive; #2 -2.4 inactive; #3 -2.58 inactive
USP31 (ubiquitin specific peptidase 31): #1 -1.13 inactive; #2 -1.28 inactive; #3 -0.59 inactive
